# Source: the supplement of paper PMC3334620
# Whole data set: some 33,000 sequences, median “E-score (-0.5 to 0.5)” near -8e-05, cut for the highest 2% near 0.23. The list shows a part of the results.
# Biological target: T1, Nrg2 (UniProt P38082)
# T1 sequence: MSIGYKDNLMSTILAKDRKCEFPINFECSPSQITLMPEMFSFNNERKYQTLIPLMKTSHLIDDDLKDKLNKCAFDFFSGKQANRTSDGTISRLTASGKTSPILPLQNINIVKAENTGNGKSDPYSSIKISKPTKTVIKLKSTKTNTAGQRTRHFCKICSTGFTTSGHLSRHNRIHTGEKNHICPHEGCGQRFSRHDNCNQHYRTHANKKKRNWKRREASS
# Test: PBM E-score (8-mer binding enrichment) (E-score (-0.5 to 0.5)); higher = stronger / more preferred TF binding
# Details: protein concentration: 100 nM; construct: GST-full length
# In short: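 Detection of bound protein used fluorescent anti-GST, with scans normalised by masliner. The proteins were GST-tagged yeast transcription factors applied at about 100-200 nM to universal all-10-mer Agilent arrays made double-stranded by primer extension. Each ungapped eight-base word, pooled with its reverse complement, was scored with an E-score from the Universal PBM Analysis Suite.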
row,Sequence,PBM E-score
1,ATGCCCTA,-0.102
2,CCAAATAG,0.0786
3,CTGAAAAC,-0.109
4,CGGTGTAC,-0.0932
5,CATAAATA,0.046
6,GAGGTATC,-0.179
7,TCGAACGA,0.0281
8,ATACTGAC,0.146
9,AGAGATTA,0.0613
10,ACCCGACG,0.00302
11,GCGCCTAA,0.0597
12,ACTAACCA,0.0165
13,CATAGGAG,-0.0429
14,ACCAATTG,-0.0349
15,ATCTGCGG,0.229
16,CTCACAGC,0.0593
17,CACCGAAA,0.0473
18,ATCCCCAG,-0.0474
19,ACGCCTCC,-0.286
20,AGAACCGG,-0.0944
21,AAATCCTA,-0.0422
22,ACTGAAGA,0.143
23,AGCCGTTG,-0.0331
24,AGGGGGAG,-0.247
25,CCCGGCGC,-0.109

row,Sequence,PBM E-score
1,CCGTTGCC,-0.0649
2,ATCTGAAT,0.115
3,ACAGGGAG,-0.147
4,GGCTGTCA,-0.0381
5,AGTGCAGG,-0.0252
6,CCGAACTC,-0.0652
7,AGATACCA,0.197
8,CCATGTAA,0.0797
9,AGCGGAAA,-0.00794
10,ACTCTCAT,0.0714
11,ATACCTTA,0.0349
12,TAAGGCAA,0.0499
13,AGTGTTAG,0.167
14,TCAGGCCA,-0.064
15,CCACGGCA,-0.05
16,AGTCATTG,0.0148
17,CTCCAGGC,-0.0994
18,CTTGCGGC,0.00859
19,GGCAGCAA,0.106
20,AATCCCGG,0.0194
21,GCGAACGA,0.15
22,CTTCTGCA,0.00773
23,GGCCGGCC,0.0877
24,ATGCGACA,0.0603
25,ACACCCTC,-0.116

row,Sequence,PBM E-score
1,ACAATTTA,0.157
2,AACGCACG,0.189
3,TCACACAA,0.137
4,GAATCTGA,-0.0632
5,AGCTTGCA,-0.016
6,AGTCTTAC,-0.162
7,ACGTCCGA,-0.06
8,CACGAGCC,-0.205
9,AAGTTTGA,0.0835
10,AATCGTGT,0.164
11,AAGATGTC,-0.12
12,AAGCACAT,0.135
13,CTTTCCAA,-0.0143
14,AGACGTCA,-0.0442
15,AACTCGGA,0.13
16,CATGGTGG,-0.144
17,GCAGACCC,-0.0364
18,CGTATTCC,-0.11
19,AATCTTAC,0.0925
20,AGTCCATA,0.0684
21,CGGCAGCC,-0.103
22,ACTCGGCT,0.00912
23,GATCCGAC,-0.0481
24,ATAAACAA,0.193
25,AGTTTGTG,-0.0679

row,Sequence,PBM E-score
1,CTCATGAA,0.112
2,AGGGATAT,0.153
3,CTCCTTCA,-0.299
4,CAGGGGCA,0.086
5,CCCATGGC,-0.123
6,GTCAAACA,-0.117
7,AATTTGCA,0.119
8,GCGTAACA,0.0647
9,CATGTGCC,0.00954
10,CCGTATCC,-0.18
11,GTCCCGTA,-0.111
12,ATCCACGG,0.0972
13,CACACTAC,0.0365
14,AATTTAAC,0.0445
15,GTAGCATA,0.0751
16,TTAAAAAA,0.0402
17,CGAGCGAG,0.249
18,GTAAGGAA,-0.0395
19,CCGCTGGA,-0.102
20,CGTAATAC,0.128
21,ACCCCGTG,0.178
22,ATTATTCG,0.295
23,CTAATAAG,-0.0914
24,ACCTGCAT,0.00088
25,AGGCAGTC,-0.0935

row,Sequence,PBM E-score
1,GGTCCGCA,0.126
2,ATCCTCAT,-0.0645
3,CCAACGTC,-0.093
4,CCTTCTCC,-0.135
5,AACGAAGC,-0.0149
6,CGACACGA,0.22
7,CTCAATTA,0.0644
8,ACATATTC,0.144
9,CAGACGGA,-0.0654
10,ACTAGCAT,-0.0422
11,AAACCTGT,-0.0112
12,AGGCGTAA,-0.0597
13,AAGGCATG,-0.241
14,CGCATACC,0.152
15,CAGGTGAG,-0.0713
16,GGCAATGA,-0.0723
17,GAGTCGCA,-0.221
18,AAAGTTTC,0.00759
19,CTGACTTC,-0.0873
20,GGCCCCAC,0.00472
21,CAAGTACA,0.0376
22,CACGCTGG,-0.0805
23,CATCAGGG,0.229
24,AGCAACCG,-0.106
25,CCGATCCA,-0.0217

row,Sequence,PBM E-score
1,AATCGGCC,-0.0612
2,ACCCTCCA,-0.0737
3,GGTGATTA,0.146
4,AACGGGCT,-0.149
5,ATCAGACA,0.0653
6,AACTTGCG,0.0217
7,CTAGTTAC,0.058
8,GTACATTA,0.00944
9,AAGGATTA,-0.0123
10,AGGTTGAC,-0.124
11,CCAAGTGC,-0.0768
12,GACCCGGA,-0.13
13,CATACCCG,-0.0139
14,GACATGGC,0.0189
15,ACACGCCC,-0.0738
16,GGAATCAA,0.0751
17,GAGTACAA,0.152
18,ATAGTGAA,0.0592
19,CCCGAGCA,-0.147
20,CGGACAAC,0.103
21,CACATGAC,0.0249
22,AATAATGT,0.175
23,CGAACGGA,0.0273
24,ACAAACAT,0.103
25,AAAAGCTG,-0.0835

row,Sequence,PBM E-score
1,GTAACGCA,0.126
2,CCAGAGTC,0.00015
3,CCAGCTAA,-0.0659
4,ATGTCTTA,0.0139
5,ACACGGGT,-0.0233
6,ATTCAGTA,0.0578
7,ACCTACAC,-0.0926
8,GTGATGAA,0.0611
9,GACCGGCA,-0.109
10,TCCCAAGA,-0.0484
11,GTAATGCA,-0.0387
12,GATATTAC,0.111
13,AGCGGTGC,-0.0279
14,CGCGTTTC,-0.134
15,CTAGGCTA,-0.202
16,AGCGGCAC,-0.138
17,AATCGTAT,-0.00262
18,CATGCAGA,0.0612
19,AGGTGTAG,-0.234
20,CGAGTAAA,0.16
21,GGGTAACC,-0.216
22,AAATATTC,0.127
